Experimental findings from publication PMC11219949 are described below.

For the data set, the system named is T1, AUREO1c (Phaeodactylum tricornutum).
T1 sequence (looked up, limits assumed): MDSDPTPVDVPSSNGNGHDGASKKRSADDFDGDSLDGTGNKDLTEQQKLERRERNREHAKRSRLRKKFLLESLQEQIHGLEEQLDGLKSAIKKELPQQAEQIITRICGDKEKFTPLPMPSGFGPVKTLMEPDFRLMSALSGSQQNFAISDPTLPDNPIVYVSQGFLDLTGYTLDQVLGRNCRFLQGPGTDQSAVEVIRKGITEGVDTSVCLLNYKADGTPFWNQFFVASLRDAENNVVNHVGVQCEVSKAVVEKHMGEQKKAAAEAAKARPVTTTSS
Kind of data set: EMSA. The conditions noted are these: excess unlabeled probe (50-200x) reverses shift, LightShift Chemiluminescent EMSA Kit (Thermo 20148) per manufacturer, temperature and light state not stated, recombinant protein, protein details: N-terminal 6xHis (pET28a), probe letters rebuilt from the primers and the genome. For orientation: In EMSA bound probe runs differently from free probe, usually more slowly.

The exact form of at least one protein or probe is not confirmed. Where a protein sequence is shown, tags need not be part of it.

Regarding “CAATTAGTGCTGACTAACAGCGTATACTGTCAACAGAGTCCGATGACTGGCTGACAATGACTTGGAACGCCAATTTGCATTGATAGTGACTATGAGTTCCAAGCTTCGATCGGGCCGAACCAAGTAGAAAGATACATGTAAACGACTACCTATATACTGGCTGATTCAATCCGACCAGCAGAGTAACCCCATCTGGTGTCGATTCCTCTGCGAATACTCTAGAGGTATCACGGTATGTATATAGTATATAGTACTCGTCGCCCACGGTTGTCTTCGATTCCCATCCATCCTGTTACGGACAGGAACCAGACACGACACGGCCCTACCTCTCCGTATCCGATCCTTGCCATCACTTTTGGGGTACTTTCGAAAAAGACTGATTCATAGTCAAATGCCTTCTGACGGATCCAGAGGGTACGCAGAGTTCTGCTGACGAACTGTCTCGTACACTCATTCTTGGTTGTGGAAATCATCTCCCTACACACTACGCTCCAAAATGATAACTCTGCACAATTCACACAATATCCTAAACAGTACACTTGCGATCGCACTTGCAACCCACGTACCACCACCAGTACCAAACACAATCATTACACC (double strand) [LHCX3 promoter probe]”, the binding result (label: 5' biotin on HZ-1628 strand) is given as “binds”.
As for “CTAACCTGTAATACTAACGTGATGTATGAATGAATCGTGTATGACGTTCCGGTGTCGAGTCACTATCATACCATTGGTGATATGATATCACGTGAGATATCACTGATATCTCACGTCAATAGACAAGCTGCTTTACAATGGGTGAAAACAACCACCACACGAAACAAGTTCCTGTAACTCTAAATATTGATTGTAATTGGTGAAGAAAGCATTTTCCTGACTGTGGGTACATGGAATACATCCTTTTTTGATAAATGTACAAACAAAGACTCATTTACTGTTAGTCATAGTCAAGCGCAGTGCGTACTTGACTGTGAAAAAATCGAGCTCTGAAAGGGTTAAAGTTCAAGAGGTACAAGGTAGCTGGTTTGCGTGTGTCAGGGCATGGCCTACCTGACTCATGCATTCCGCGTGCCACAAAAACTCACAGTCAGAGAGCCACTCCGAGAATCCTCCAGAATTTCGTGGAAGATTTTTTCGTCATCTTTTTCCAGTTCTCCGCATAGCTCTCATAGTTTCGTTTGCGTTCTTCGTCAACACACCGCAAAAAGATATACGTCCAATTCCAGCCCACTACGTACA (double strand) [LHCX2 promoter probe]”, the binding result (label: 5' biotin on HZ-1630 strand) was “binds”.
